# According to the supplement of paper PMC12819154, “High-throughput peptide-centric local stability assay extends protein–ligand identification to membrane proteins, tissues and bacteria” (Nature Structural & Molecular Biology, 2025):
# The chains behind the UniProt entries cited, without tags or fusion partners. Where a name states a change or a piece, a line headed by the entry shows the natural chain unless it says otherwise.
# UniProt O88673: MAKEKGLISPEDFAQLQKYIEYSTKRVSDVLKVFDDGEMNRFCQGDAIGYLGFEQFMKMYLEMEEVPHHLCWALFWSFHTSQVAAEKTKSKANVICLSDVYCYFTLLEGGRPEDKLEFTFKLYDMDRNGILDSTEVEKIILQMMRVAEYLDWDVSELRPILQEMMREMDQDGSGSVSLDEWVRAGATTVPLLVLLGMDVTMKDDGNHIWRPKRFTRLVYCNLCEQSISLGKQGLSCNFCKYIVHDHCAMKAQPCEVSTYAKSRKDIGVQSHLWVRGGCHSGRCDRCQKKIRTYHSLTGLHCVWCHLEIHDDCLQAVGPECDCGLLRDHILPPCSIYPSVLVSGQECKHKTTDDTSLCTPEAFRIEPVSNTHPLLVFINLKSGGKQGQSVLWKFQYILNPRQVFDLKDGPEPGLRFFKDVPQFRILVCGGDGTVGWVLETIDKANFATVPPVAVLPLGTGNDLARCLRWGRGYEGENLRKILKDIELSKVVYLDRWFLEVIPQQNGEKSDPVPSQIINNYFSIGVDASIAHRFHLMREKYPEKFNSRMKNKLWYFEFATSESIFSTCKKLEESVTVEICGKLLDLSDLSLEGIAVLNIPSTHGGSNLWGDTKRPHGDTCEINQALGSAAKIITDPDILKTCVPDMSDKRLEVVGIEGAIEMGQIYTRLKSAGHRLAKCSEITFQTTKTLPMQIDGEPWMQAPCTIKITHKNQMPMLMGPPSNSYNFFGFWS
# UniProt O55234: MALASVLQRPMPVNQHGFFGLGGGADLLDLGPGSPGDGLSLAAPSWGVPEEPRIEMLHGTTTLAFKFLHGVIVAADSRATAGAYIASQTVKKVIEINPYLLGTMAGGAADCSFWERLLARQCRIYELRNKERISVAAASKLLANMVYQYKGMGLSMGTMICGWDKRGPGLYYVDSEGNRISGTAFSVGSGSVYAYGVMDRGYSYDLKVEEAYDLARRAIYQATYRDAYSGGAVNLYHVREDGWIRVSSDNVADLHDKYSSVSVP
# UniProt O54998: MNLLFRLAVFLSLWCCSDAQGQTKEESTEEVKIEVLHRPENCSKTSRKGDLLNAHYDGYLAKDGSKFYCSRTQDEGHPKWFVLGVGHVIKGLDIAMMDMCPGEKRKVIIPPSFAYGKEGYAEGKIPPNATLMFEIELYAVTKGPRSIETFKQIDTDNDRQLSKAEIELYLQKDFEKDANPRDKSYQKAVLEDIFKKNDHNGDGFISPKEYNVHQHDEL
# UniProt O35955: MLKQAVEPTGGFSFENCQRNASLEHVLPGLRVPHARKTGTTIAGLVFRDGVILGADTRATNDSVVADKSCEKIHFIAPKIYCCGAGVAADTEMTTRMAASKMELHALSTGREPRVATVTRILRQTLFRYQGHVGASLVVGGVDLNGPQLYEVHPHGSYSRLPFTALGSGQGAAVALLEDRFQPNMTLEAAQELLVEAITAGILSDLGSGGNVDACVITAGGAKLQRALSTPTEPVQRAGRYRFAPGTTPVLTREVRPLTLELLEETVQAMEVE
# UniProt O54890: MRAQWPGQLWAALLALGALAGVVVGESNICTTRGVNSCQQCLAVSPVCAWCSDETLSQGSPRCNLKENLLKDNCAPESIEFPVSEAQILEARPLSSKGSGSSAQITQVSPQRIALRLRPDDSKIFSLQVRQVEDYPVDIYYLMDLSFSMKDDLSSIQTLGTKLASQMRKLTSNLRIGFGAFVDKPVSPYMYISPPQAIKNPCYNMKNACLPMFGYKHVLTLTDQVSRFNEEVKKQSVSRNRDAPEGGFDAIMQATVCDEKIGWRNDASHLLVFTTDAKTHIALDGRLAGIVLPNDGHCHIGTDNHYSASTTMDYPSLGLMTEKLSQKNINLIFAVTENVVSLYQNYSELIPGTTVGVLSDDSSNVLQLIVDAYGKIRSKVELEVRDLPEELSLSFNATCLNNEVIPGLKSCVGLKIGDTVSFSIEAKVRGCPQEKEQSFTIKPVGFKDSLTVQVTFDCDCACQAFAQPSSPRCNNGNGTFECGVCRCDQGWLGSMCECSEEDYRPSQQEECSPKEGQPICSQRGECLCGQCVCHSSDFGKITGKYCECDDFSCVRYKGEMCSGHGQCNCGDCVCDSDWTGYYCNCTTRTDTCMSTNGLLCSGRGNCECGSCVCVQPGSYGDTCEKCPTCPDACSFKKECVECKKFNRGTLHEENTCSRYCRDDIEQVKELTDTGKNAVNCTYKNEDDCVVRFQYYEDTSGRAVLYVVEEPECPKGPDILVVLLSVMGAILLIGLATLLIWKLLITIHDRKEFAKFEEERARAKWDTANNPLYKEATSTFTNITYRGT
# UniProt O88685, whole entry: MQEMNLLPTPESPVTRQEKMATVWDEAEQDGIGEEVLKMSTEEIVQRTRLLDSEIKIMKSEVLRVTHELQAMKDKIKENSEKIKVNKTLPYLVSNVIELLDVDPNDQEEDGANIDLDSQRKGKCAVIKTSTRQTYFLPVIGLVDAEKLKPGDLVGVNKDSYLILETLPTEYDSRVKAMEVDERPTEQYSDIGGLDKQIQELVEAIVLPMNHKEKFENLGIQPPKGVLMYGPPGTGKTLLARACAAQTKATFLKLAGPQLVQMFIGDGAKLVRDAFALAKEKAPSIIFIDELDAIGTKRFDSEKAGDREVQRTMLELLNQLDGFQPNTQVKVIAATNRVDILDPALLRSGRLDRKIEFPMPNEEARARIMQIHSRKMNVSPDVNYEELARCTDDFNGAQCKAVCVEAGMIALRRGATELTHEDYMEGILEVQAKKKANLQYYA
# UniProt O88852: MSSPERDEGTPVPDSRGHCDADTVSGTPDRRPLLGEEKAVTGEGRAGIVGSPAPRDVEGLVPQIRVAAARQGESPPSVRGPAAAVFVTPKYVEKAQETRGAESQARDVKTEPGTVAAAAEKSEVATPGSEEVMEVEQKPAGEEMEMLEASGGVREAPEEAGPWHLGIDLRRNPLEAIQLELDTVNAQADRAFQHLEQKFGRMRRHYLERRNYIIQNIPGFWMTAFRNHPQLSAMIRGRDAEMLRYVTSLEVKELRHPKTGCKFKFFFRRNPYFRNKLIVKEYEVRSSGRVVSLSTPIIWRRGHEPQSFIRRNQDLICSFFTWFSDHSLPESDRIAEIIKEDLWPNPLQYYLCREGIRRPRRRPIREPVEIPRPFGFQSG
# UniProt O70435: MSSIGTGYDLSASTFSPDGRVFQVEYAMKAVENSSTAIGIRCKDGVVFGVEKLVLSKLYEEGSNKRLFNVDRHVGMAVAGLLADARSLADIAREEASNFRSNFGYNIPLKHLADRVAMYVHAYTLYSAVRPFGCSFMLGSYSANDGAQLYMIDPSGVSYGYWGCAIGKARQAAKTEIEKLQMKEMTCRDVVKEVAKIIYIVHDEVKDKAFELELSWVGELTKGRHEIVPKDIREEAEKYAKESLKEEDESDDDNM
# UniProt O88833: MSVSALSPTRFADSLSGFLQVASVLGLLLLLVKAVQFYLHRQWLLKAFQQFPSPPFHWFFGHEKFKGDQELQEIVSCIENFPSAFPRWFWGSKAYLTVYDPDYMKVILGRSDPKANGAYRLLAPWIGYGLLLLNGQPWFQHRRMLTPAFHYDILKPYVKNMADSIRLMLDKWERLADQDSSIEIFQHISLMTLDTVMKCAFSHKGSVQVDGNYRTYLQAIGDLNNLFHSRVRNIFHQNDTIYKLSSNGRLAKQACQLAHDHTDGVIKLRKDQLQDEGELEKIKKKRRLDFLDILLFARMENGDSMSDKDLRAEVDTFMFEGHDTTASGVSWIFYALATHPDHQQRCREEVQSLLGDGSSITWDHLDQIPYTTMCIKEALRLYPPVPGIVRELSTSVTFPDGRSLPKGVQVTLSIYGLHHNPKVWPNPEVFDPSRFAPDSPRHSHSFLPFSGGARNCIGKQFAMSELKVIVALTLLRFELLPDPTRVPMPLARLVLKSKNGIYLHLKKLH
# UniProt O54951: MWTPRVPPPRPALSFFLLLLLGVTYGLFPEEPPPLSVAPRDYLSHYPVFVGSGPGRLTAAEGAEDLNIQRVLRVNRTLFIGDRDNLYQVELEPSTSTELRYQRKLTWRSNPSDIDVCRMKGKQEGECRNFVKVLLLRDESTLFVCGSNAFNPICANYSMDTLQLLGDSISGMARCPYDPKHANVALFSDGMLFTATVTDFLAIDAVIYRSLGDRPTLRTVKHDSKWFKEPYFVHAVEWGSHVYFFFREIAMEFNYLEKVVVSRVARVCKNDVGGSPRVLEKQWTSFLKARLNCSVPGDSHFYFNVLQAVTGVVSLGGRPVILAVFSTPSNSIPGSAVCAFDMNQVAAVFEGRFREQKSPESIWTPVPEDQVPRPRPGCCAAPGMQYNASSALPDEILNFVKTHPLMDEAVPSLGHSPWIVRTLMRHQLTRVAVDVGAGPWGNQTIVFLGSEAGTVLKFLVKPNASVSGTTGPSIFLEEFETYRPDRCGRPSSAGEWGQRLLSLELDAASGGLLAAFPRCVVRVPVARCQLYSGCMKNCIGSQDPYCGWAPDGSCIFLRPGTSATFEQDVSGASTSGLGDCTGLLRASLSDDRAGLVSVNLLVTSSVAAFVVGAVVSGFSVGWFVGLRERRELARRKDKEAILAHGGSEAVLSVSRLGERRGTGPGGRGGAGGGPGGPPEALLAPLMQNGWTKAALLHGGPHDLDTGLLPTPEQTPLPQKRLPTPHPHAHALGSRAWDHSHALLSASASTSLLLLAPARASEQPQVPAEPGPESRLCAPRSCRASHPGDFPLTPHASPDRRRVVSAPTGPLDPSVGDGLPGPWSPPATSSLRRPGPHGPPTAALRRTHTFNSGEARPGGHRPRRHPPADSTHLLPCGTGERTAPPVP
# UniProt O35841: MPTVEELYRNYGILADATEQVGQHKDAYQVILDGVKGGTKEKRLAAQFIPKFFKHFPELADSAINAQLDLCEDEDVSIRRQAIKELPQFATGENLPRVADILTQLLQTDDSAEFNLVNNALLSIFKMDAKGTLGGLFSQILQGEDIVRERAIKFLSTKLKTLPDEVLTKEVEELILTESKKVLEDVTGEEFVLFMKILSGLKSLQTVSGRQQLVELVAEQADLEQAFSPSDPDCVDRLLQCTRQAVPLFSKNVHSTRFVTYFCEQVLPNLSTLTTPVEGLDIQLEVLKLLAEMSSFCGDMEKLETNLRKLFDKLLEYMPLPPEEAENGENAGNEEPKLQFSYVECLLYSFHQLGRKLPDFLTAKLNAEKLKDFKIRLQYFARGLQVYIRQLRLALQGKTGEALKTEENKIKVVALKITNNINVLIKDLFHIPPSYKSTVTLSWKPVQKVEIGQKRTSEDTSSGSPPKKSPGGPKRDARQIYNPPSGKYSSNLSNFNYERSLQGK
# UniProt O70373: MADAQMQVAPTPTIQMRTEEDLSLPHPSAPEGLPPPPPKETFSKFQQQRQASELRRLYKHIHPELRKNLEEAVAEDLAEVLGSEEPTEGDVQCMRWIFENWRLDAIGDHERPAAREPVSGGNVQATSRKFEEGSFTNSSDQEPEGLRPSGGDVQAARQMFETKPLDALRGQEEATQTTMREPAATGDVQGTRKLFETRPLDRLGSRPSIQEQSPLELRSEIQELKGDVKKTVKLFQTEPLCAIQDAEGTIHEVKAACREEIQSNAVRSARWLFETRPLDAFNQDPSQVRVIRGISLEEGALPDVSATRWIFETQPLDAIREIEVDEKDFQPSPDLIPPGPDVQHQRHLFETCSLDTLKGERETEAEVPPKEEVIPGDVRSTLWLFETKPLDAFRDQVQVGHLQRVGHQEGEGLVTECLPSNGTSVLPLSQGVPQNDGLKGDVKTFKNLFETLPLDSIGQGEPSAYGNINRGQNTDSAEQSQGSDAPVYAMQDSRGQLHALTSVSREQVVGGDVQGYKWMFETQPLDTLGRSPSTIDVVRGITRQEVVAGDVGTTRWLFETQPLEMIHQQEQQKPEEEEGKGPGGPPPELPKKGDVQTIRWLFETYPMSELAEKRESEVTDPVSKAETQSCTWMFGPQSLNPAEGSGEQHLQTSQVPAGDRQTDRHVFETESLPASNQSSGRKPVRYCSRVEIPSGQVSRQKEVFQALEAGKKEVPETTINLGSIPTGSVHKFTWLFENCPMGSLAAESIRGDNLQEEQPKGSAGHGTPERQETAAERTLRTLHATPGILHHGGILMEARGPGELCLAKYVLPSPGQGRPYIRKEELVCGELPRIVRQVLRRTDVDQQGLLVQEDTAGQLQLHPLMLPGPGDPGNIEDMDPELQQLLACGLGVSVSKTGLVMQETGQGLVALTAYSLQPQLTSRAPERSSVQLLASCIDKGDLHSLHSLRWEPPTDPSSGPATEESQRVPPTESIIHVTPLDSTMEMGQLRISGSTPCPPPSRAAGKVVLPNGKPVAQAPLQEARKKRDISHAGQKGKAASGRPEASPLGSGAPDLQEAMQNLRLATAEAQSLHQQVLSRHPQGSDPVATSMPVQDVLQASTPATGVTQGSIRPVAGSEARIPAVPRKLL
# UniProt O35623: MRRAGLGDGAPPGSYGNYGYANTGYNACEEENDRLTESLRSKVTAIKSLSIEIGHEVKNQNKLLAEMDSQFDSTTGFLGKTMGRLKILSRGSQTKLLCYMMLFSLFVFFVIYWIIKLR
# UniProt O70139: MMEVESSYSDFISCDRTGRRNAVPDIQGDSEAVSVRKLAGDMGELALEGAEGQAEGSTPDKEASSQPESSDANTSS
# Some of the results follow. Small differences around the control level are noise.
# Compound: CN[C@@H]1C[C@H]2O[C@@](C)([C@@H]1OC)n1c3ccccc3c3c4c(c5c6ccccc6n2c5c31)C(=O)NC4 [staurosporine]
# Experiment: log2 fold change of tryptic peptide abundance, ligand vs vehicle (limited proteolysis) (log2 ratio); higher = more trypsin-susceptible (destabilized)
# Conditions: ligand concentration: 20 uM; sample: mouse liver crude lysate; replicate design: treated separately
row,Target,log2 fold change
1,"UniProt O88673 (peptide sequence: RPHGDTCEINQALGSAAK, peptide start residue: 612)",-0.396
2,"UniProt O55234 (peptide sequence: LLANMVYQYK, peptide start residue: 141)",0.295
3,"UniProt O54998 (peptide sequence: DFEKDANPR, peptide start residue: 173)",-0.349
4,"UniProt O35980 (peptide sequence: IASEGCREELAPR, peptide start residue: 18)",-0.113
5,"UniProt O35955 (peptide sequence: FAPGTTPVLTR, peptide start residue: 243)",0.129
6,"UniProt O54946 (peptide sequence: RGQPTPALAPGPAPAPVRVPSQAR, peptide start residue: 246)",-0.681
7,"UniProt O55060 (peptide sequence: NQVLTLEDWKEK, peptide start residue: 16)",-0.22
8,"UniProt O54890 (peptide sequence: AKWDTANNPLYK, peptide start residue: 762)",0.394
9,"UniProt O54915 (peptide sequence: IMAVLTELR, peptide start residue: 390)",0.036
10,"UniProt O88685 (peptide sequence: KIEFPMPNEEAR, peptide start residue: 354)",-0.192
11,"UniProt O88852 (peptide sequence: AFQHLEQK, peptide start residue: 191)",-0.692
12,"UniProt O55070 (peptide sequence: RSTTYNYVISSR, peptide start residue: 86)",-0.855
13,"UniProt O88573 (peptide sequence: VAQAPSPCTAR, peptide start residue: 1091)",0.237
14,"UniProt O35680 (peptide sequence: RLGPTEGRPQLK, peptide start residue: 48)",-0.0868
15,"UniProt O35615 (peptide sequence: ASGPGEPGPQAPSR, peptide start residue: 481)",0.372
16,"UniProt O88492 (peptide sequence: GTIQGGLDTTK, peptide start residue: 213)",-0.337

row,Target,log2 fold change
1,"UniProt O88291 (peptide sequence: MAFTCSFCK, peptide start residue: 310)",0.14
2,"UniProt O35638 (peptide sequence: YVGWTMHDK, peptide start residue: 331)",0.692
3,"UniProt O70435 (peptide sequence: SNFGYNIPLK, peptide start residue: 101)",0.403
4,"UniProt O35551 (peptide sequence: ATVEQLMFEEK, peptide start residue: 791)",0.362
5,"UniProt O88833 (peptide sequence: DQLQDEGELEK, peptide start residue: 271)",0.195
6,"UniProt O35698 (peptide sequence: PPSFSRTR, peptide start residue: 98)",0.127
7,"UniProt O88286 (peptide sequence: EFLAGAARPGLLTLAK, peptide start residue: 973)",0.433
8,"UniProt O88708 (peptide sequence: AHSVYNFEKPVVMK, peptide start residue: 358)",-0.249
9,"UniProt O54951 (peptide sequence: RPGPHGPPTAALR, peptide start residue: 832)",0.181
10,"UniProt O35841 (peptide sequence: KLPDFLTAK, peptide start residue: 356)",0.661
11,"UniProt O54950 (peptide sequence: SHYFEGVLK, peptide start residue: 269)",0.266
12,"UniProt O70373 (peptide sequence: LATAEAQSLHQQVLSR, peptide start residue: 1064)",-0.237
13,"UniProt O35623 (peptide sequence: SLSIEIGHEVKNQNK, peptide start residue: 48)",-0.17
14,"UniProt O35613 (peptide sequence: DCSSLTGR, peptide start residue: 250)",0.475
15,"UniProt O70139 (peptide sequence: RNAVPDIQGDSEAVSVR, peptide start residue: 20)",0.103

# Some of the entries above, set out differently:
row	Target	log2 fold change
1	UniProt O88291 (peptide sequence: MAFTCSFCK, peptide start residue: 310)	0.14
13	UniProt O35623 (peptide sequence: SLSIEIGHEVKNQNK, peptide start residue: 48)	-0.17
14	UniProt O35613 (peptide sequence: DCSSLTGR, peptide start residue: 250)	0.475
